{"source": "PubChem BioAssay AID652243 (Drosophila RNAi Screening Center, 2013)", "aim": "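Fly regulators of androgen-dependent reporter output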 (primary screen)", "cell system": "Drosophila S2R+ cells", "knock-down reagent": "long dsRNA against Drosophila genes", "duration": "72 h (48 h, then 24 h hormone)", "conditions": "synthetic androgen R1881 at 10 nM for 24 h", "measurement": "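Per-well raw luminescence of the androgen-driven firefly reporter and of the Renilla control, two replicates each, without normalisation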", "direction": "firefly reporter light: higher = more light from androgen-responsive reporter; Renilla control light: higher = more constitutive control signal (cell number, transfection)", "hit rule": "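Across duplicate plates, a knock-down whose log firefly/Renilla ratio shifted a set fold down or up from the GFP/LacZ control mean was a hit; the downward cut appears as both 1.5 and 3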", "meaning of the calls": "active = hit: reporter lowered or raised; inactive = no hit", "note": "The deposit covers about 24,000 reagents; this is an unselected part of those with a known target gene and a result. Of all reagents, 246 (1%) were called active. 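Plates not normalised; calls are printed but the firefly/Renilla ratio behind them is not deposited; fold cut for lowering reported inconsistently.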 Raw values vary from plate to plate and are shown uncorrected. Not stated in the record: the amount of reagent."}
{"gene": "CG8520", "amplicon": "DRSC07206", "firefly reporter light, replicate 1": 9.51e5, "firefly reporter light, replicate 2": 5.83e5, "Renilla control light, replicate 1": 1.64e6, "Renilla control light, replicate 2": 1.39e6, "call": "inactive"}
{"gene": "Ir94f (Ionotropic receptor 94f)", "amplicon": "DRSC13621", "firefly reporter light, replicate 1": 1.31e5, "firefly reporter light, replicate 2": 1.15e5, "Renilla control light, replicate 1": 2.56e5, "Renilla control light, replicate 2": 2.67e5, "call": "inactive"}
{"gene": "Inx5 (Innexin 5)", "amplicon": "DRSC20051", "firefly reporter light, replicate 1": 2.09e5, "firefly reporter light, replicate 2": 1.45e5, "Renilla control light, replicate 1": 8.03e5, "Renilla control light, replicate 2": 3.47e5, "call": "inactive"}
{"gene": "CG7309", "amplicon": "DRSC03045", "firefly reporter light, replicate 1": 2.29e5, "firefly reporter light, replicate 2": 2.24e5, "Renilla control light, replicate 1": 2.18e6, "Renilla control light, replicate 2": 2.05e6, "call": "inactive"}
{"gene": "CG7309", "amplicon": "DRSC27252", "firefly reporter light, replicate 1": 2.45e5, "firefly reporter light, replicate 2": 2.37e5, "Renilla control light, replicate 1": 5.05e5, "Renilla control light, replicate 2": 5.76e5, "call": "inactive"}
{"gene": "CG18249", "amplicon": "DRSC15318", "firefly reporter light, replicate 1": 65605, "firefly reporter light, replicate 2": 65998, "Renilla control light, replicate 1": 3.49e5, "Renilla control light, replicate 2": 3.61e5, "call": "inactive"}
{"gene": "CG13337", "amplicon": "DRSC06371", "firefly reporter light, replicate 1": 1.23e5, "firefly reporter light, replicate 2": 76808, "Renilla control light, replicate 1": 2.00e6, "Renilla control light, replicate 2": 2.00e6, "call": "inactive"}
{"gene": "CG13337", "amplicon": "DRSC28309", "firefly reporter light, replicate 1": 4.71e5, "firefly reporter light, replicate 2": 7.84e5, "Renilla control light, replicate 1": 1.16e6, "Renilla control light, replicate 2": 1.94e6, "call": "inactive"}
{"gene": "CG34203", "amplicon": "DRSC38897", "firefly reporter light, replicate 1": 9.01e5, "firefly reporter light, replicate 2": 8.49e5, "Renilla control light, replicate 1": 1.61e6, "Renilla control light, replicate 2": 1.61e6, "call": "inactive"}
{"gene": "cid (centromere identifier)", "amplicon": "DRSC05429", "firefly reporter light, replicate 1": 1.32e5, "firefly reporter light, replicate 2": 1.95e5, "Renilla control light, replicate 1": 3.88e5, "Renilla control light, replicate 2": 3.66e5, "call": "inactive"}
{"gene": "cid (centromere identifier)", "amplicon": "DRSC07592", "firefly reporter light, replicate 1": 1.35e5, "firefly reporter light, replicate 2": 1.47e5, "Renilla control light, replicate 1": 3.50e6, "Renilla control light, replicate 2": 3.50e6, "call": "inactive"}
{"gene": "Smr (Smrter)", "amplicon": "DRSC22986", "firefly reporter light, replicate 1": 7.55e5, "firefly reporter light, replicate 2": 7.69e5, "Renilla control light, replicate 1": 1.33e6, "Renilla control light, replicate 2": 1.11e6, "call": "inactive"}
{"gene": "Smr (Smrter)", "amplicon": "DRSC25781", "firefly reporter light, replicate 1": 4.09e5, "firefly reporter light, replicate 2": 3.71e5, "Renilla control light, replicate 1": 9.55e5, "Renilla control light, replicate 2": 6.99e5, "call": "inactive"}
{"gene": "lncRNA:CR43372 (long non-coding RNA:CR43372)", "amplicon": "DRSC15041", "firefly reporter light, replicate 1": 3.09e5, "firefly reporter light, replicate 2": 3.23e5, "Renilla control light, replicate 1": 3.50e6, "Renilla control light, replicate 2": 3.56e6, "call": "inactive"}

Not a retest: an excerpt of the list.
{"gene": "CG34203", "amplicon": "DRSC38897", "firefly reporter light, replicate 1": 9.01e5, "firefly reporter light, replicate 2": 8.49e5, "Renilla control light, replicate 1": 1.61e6, "Renilla control light, replicate 2": 1.61e6, "call": "inactive"}
{"gene": "cid (centromere identifier)", "amplicon": "DRSC05429", "firefly reporter light, replicate 1": 1.32e5, "firefly reporter light, replicate 2": 1.95e5, "Renilla control light, replicate 1": 3.88e5, "Renilla control light, replicate 2": 3.66e5, "call": "inactive"}
{"gene": "cid (centromere identifier)", "amplicon": "DRSC07592", "firefly reporter light, replicate 1": 1.35e5, "firefly reporter light, replicate 2": 1.47e5, "Renilla control light, replicate 1": 3.50e6, "Renilla control light, replicate 2": 3.50e6, "call": "inactive"}
{"gene": "Smr (Smrter)", "amplicon": "DRSC22986", "firefly reporter light, replicate 1": 7.55e5, "firefly reporter light, replicate 2": 7.69e5, "Renilla control light, replicate 1": 1.33e6, "Renilla control light, replicate 2": 1.11e6, "call": "inactive"}

The listing continues:
{"gene": "CR34285 (pseudo)", "amplicon": "DRSC38627", "firefly reporter light, replicate 1": 9.25e5, "firefly reporter light, replicate 2": 5.93e5, "Renilla control light, replicate 1": 2.43e6, "Renilla control light, replicate 2": 1.49e6, "call": "inactive"}
{"gene": "dmrt99B (doublesex-Mab related 99B)", "amplicon": "DRSC22977", "firefly reporter light, replicate 1": 7.82e5, "firefly reporter light, replicate 2": 7.48e5, "Renilla control light, replicate 1": 9.82e5, "Renilla control light, replicate 2": 1.29e6, "call": "inactive"}
{"gene": "dmrt99B (doublesex-Mab related 99B)", "amplicon": "DRSC25777", "firefly reporter light, replicate 1": 2.03e5, "firefly reporter light, replicate 2": 2.26e5, "Renilla control light, replicate 1": 6.34e5, "Renilla control light, replicate 2": 4.81e5, "call": "inactive"}
{"gene": "CG17362", "amplicon": "DRSC10267", "firefly reporter light, replicate 1": 2.79e5, "firefly reporter light, replicate 2": 1.63e5, "Renilla control light, replicate 1": 1.63e6, "Renilla control light, replicate 2": 1.11e6, "call": "inactive"}
{"gene": "Agpat4 (1-Acylglycerol-3-phosphate O-acyltransferase 4)", "amplicon": "DRSC10446", "firefly reporter light, replicate 1": 1.45e5, "firefly reporter light, replicate 2": 1.16e5, "Renilla control light, replicate 1": 1.60e6, "Renilla control light, replicate 2": 1.36e6, "call": "inactive"}
{"gene": "Agpat4 (1-Acylglycerol-3-phosphate O-acyltransferase 4)", "amplicon": "DRSC26102", "firefly reporter light, replicate 1": 5.15e5, "firefly reporter light, replicate 2": 3.50e5, "Renilla control light, replicate 1": 7.75e5, "Renilla control light, replicate 2": 6.56e5, "call": "inactive"}
{"gene": "CG15876", "amplicon": "DRSC08484", "firefly reporter light, replicate 1": 1.21e5, "firefly reporter light, replicate 2": 1.27e5, "Renilla control light, replicate 1": 1.97e6, "Renilla control light, replicate 2": 2.23e6, "call": "inactive"}
{"gene": "CG15876", "amplicon": "DRSC27697", "firefly reporter light, replicate 1": 1.89e5, "firefly reporter light, replicate 2": 2.23e5, "Renilla control light, replicate 1": 3.95e5, "Renilla control light, replicate 2": 6.14e5, "call": "inactive"}
{"gene": "NijB (Ninjurin B)", "amplicon": "DRSC09850", "firefly reporter light, replicate 1": 5.14e5, "firefly reporter light, replicate 2": 5.58e5, "Renilla control light, replicate 1": 3.62e6, "Renilla control light, replicate 2": 5.10e6, "call": "inactive"}
{"gene": "CG10553", "amplicon": "DRSC14254", "firefly reporter light, replicate 1": 2.83e5, "firefly reporter light, replicate 2": 2.00e5, "Renilla control light, replicate 1": 3.26e6, "Renilla control light, replicate 2": 3.00e6, "call": "inactive"}
{"gene": "EndoU (Endoribonuclease U-specific)", "amplicon": "DRSC15472", "firefly reporter light, replicate 1": 80008, "firefly reporter light, replicate 2": 80546, "Renilla control light, replicate 1": 6.88e5, "Renilla control light, replicate 2": 5.59e5, "call": "inactive"}
{"gene": "Grasp65", "amplicon": "DRSC10917", "firefly reporter light, replicate 1": 85458, "firefly reporter light, replicate 2": 70699, "Renilla control light, replicate 1": 1.10e6, "Renilla control light, replicate 2": 1.36e6, "call": "inactive"}
{"gene": "Grasp65", "amplicon": "DRSC28969", "firefly reporter light, replicate 1": 5.08e5, "firefly reporter light, replicate 2": 4.74e5, "Renilla control light, replicate 1": 1.31e6, "Renilla control light, replicate 2": 1.07e6, "call": "inactive"}
